{"source": "the supplement of paper PMC6411743", "assay_in_all_cases": "NP40-soluble protein abundance relative to vehicle (solubility fold change) (ratio); higher = more soluble protein in presence of AMP-PNP", "key": {"[1]": {"biological_target": "T1, J3KPD3 and related entries (UniProt Q9Y580)", "T1 sequence (whole entry)": "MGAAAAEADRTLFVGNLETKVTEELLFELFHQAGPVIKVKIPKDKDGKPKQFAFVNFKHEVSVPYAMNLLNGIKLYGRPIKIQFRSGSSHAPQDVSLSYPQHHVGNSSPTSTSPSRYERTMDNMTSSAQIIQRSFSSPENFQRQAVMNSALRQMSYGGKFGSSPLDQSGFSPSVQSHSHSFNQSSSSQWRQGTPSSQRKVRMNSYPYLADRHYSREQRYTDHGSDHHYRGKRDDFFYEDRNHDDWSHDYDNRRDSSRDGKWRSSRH", "method_in_brief": "(§1)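 Data come from three independent experiments in which Dounce-homogenised Jurkat crude lysate was treated at eight concentrations from 0.1 to 10 mM. Treatment ran 10 min at room temperature and then 3 min at 37 °C, after which 0.8% NP40 and benzonase were added for 60 min at 4 °C before ultracentrifugation. The supernatant underwent TMT labelling and LC-MS/MS, and vsn-normalised intensities were expressed as fold change against the detergent-processed vehicle in each replicate.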"}, "[2]": {"biological_target": "T2, J3KPT4 and related entries (UniProt Q9H4I3)", "T2 sequence (whole entry)": "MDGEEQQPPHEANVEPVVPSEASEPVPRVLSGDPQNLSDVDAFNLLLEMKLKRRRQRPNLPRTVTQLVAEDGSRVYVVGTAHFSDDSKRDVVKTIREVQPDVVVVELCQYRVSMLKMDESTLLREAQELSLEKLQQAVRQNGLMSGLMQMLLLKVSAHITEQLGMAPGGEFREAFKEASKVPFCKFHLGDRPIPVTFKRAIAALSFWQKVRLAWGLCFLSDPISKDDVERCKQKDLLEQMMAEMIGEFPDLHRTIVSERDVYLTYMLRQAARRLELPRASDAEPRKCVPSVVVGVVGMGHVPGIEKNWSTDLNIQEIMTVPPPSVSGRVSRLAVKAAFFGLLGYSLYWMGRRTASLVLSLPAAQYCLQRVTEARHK", "method_in_brief": "as §1"}, "[3]": {"biological_target": "T3, J3KQ09 and related entries (UniProt Q9UNA4)", "T3 sequence (whole entry)": "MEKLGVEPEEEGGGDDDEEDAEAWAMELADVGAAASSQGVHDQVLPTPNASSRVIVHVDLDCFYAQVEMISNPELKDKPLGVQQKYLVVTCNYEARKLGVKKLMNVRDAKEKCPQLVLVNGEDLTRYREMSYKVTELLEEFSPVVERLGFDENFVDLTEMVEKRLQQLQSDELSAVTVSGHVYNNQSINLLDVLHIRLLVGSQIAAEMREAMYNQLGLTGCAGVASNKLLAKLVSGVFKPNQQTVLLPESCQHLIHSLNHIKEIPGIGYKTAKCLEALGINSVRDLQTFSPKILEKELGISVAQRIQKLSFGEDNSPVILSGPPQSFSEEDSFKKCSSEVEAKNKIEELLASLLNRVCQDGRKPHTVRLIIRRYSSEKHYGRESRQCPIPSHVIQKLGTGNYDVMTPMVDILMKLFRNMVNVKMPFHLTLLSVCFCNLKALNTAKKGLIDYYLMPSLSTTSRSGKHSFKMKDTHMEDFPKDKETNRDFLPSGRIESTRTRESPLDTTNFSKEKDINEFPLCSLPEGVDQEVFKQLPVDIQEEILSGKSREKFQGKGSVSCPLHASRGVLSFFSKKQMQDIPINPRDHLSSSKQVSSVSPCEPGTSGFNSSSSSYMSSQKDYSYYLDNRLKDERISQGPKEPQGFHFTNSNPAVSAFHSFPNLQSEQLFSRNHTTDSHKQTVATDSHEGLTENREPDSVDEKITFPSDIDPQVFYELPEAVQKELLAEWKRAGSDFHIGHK", "method_in_brief": "as §1"}, "[4]": {"biological_target": "T4, J3KQS5 and related entries (UniProt Q96JA3)", "T4 sequence (whole entry)": "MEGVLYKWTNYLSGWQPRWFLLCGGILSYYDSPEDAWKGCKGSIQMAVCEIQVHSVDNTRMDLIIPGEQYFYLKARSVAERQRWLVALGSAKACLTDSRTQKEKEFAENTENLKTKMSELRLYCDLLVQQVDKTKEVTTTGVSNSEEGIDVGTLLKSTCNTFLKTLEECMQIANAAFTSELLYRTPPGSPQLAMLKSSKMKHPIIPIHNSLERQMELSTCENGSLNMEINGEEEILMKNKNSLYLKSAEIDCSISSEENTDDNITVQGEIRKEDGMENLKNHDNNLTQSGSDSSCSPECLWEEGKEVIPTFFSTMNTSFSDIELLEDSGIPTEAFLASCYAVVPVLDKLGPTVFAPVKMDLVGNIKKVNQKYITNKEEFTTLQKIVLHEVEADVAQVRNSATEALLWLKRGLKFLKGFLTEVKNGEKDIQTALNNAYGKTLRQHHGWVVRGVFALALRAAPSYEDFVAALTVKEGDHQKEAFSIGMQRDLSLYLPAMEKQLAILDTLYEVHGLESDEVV", "method_in_brief": "as §1"}, "[5]": {"biological_target": "T5, J3KSZ8 and related entries (UniProt Q68DK7)", "T5 sequence (whole entry)": "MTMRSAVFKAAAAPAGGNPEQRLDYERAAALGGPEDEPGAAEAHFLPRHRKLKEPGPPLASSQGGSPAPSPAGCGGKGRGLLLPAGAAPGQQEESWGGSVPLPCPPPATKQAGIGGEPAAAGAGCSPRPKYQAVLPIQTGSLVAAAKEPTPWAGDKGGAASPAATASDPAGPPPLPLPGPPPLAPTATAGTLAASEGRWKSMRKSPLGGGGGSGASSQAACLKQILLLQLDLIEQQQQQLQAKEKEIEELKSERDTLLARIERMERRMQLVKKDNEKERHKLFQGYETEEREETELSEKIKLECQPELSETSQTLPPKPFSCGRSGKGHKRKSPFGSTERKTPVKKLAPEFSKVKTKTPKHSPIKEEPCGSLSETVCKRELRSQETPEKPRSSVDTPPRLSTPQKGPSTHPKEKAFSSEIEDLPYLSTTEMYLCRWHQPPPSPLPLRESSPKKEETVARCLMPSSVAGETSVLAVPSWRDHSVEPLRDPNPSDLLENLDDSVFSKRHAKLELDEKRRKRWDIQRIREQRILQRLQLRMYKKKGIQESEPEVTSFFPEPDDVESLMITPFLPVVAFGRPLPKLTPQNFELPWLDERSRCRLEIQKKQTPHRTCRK", "method_in_brief": "as §1"}}, "note": "± gives the standard deviation of the averaged measurements. Only a part is listed here, and it is no random draw.", "data": [{"smiles": "Nc1ncnc2c1ncn2[C@@H]1O[C@H](COP(=O)(O)OP(=O)(O)NP(=O)(O)O)[C@@H](O)[C@H]1O", "note": "[adenylyl imidodiphosphate]", "values": [{"measurement": "NP40-soluble protein abundance", "setting": "[1]; concentration: 8mM", "result": "0.974 ± 0.051"}, {"measurement": "NP40-soluble protein abundance", "setting": "[1]; concentration: 10mM", "result": "1.01 ± 0.063"}, {"measurement": "NP40-soluble protein abundance", "setting": "[2]; concentration: 1mM", "result": "0.959 ± 0.029"}, {"measurement": "NP40-soluble protein abundance", "setting": "[2]; concentration: 2mM", "result": "0.914 ± 0.033"}, {"measurement": "NP40-soluble protein abundance", "setting": "[2]; concentration: 4mM", "result": "0.976 ± 0.015"}, {"measurement": "NP40-soluble protein abundance", "setting": "[2]; concentration: 6mM", "result": "0.986 ± 0.053"}, {"measurement": "NP40-soluble protein abundance", "setting": "[2]; concentration: 8mM", "result": "0.981 ± 0.011"}, {"measurement": "NP40-soluble protein abundance", "setting": "[2]; concentration: 10mM", "result": "0.976 ± 0.021"}, {"measurement": "NP40-soluble protein abundance", "setting": "[3]; concentration: 1mM", "result": "1.03 ± 0.031"}, {"measurement": "NP40-soluble protein abundance", "setting": "[3]; concentration: 2mM", "result": "0.987 ± 0.029"}, {"measurement": "NP40-soluble protein abundance", "setting": "[3]; concentration: 4mM", "result": "1.01 ± 0.011"}, {"measurement": "NP40-soluble protein abundance", "setting": "[3]; concentration: 6mM", "result": "0.99 ± 0.029"}, {"measurement": "NP40-soluble protein abundance", "setting": "[3]; concentration: 8mM", "result": "1 ± 0.015"}, {"measurement": "NP40-soluble protein abundance", "setting": "[3]; concentration: 10mM", "result": "0.9853 ± 0.0059"}, {"measurement": "NP40-soluble protein abundance", "setting": "[4]; concentration: 1mM", "result": "0.962 ± 0.02"}, {"measurement": "NP40-soluble protein abundance", "setting": "[4]; concentration: 2mM", "result": "0.996 ± 0.033"}, {"measurement": "NP40-soluble protein abundance", "setting": "[4]; concentration: 4mM", "result": "0.952 ± 0.03"}, {"measurement": "NP40-soluble protein abundance", "setting": "[4]; concentration: 6mM", "result": "0.941 ± 0.028"}, {"measurement": "NP40-soluble protein abundance", "setting": "[4]; concentration: 8mM", "result": "0.952 ± 0.018"}, {"measurement": "NP40-soluble protein abundance", "setting": "[4]; concentration: 10mM", "result": "0.936 ± 0.012"}, {"measurement": "NP40-soluble protein abundance", "setting": "[5]; concentration: 1mM", "result": "1.03 ± 0.027"}, {"measurement": "NP40-soluble protein abundance", "setting": "[5]; concentration: 2mM", "result": "1.02 ± 0.069"}, {"measurement": "NP40-soluble protein abundance", "setting": "[5]; concentration: 4mM", "result": "1.02 ± 0.031"}, {"measurement": "NP40-soluble protein abundance", "setting": "[5]; concentration: 6mM", "result": "1.03 ± 0.027"}, {"measurement": "NP40-soluble protein abundance", "setting": "[5]; concentration: 8mM", "result": "1.03 ± 0.035"}, {"measurement": "NP40-soluble protein abundance", "setting": "[5]; concentration: 10mM", "result": "1.07 ± 0.04"}]}]}
